# In the supplement of paper PMC10849652:
# The chains behind the UniProt entries cited, without tags or fusion partners. Where a name states a change or a piece, a line headed by the entry shows the natural chain unless it says otherwise.
# UniProt Q9UIF9: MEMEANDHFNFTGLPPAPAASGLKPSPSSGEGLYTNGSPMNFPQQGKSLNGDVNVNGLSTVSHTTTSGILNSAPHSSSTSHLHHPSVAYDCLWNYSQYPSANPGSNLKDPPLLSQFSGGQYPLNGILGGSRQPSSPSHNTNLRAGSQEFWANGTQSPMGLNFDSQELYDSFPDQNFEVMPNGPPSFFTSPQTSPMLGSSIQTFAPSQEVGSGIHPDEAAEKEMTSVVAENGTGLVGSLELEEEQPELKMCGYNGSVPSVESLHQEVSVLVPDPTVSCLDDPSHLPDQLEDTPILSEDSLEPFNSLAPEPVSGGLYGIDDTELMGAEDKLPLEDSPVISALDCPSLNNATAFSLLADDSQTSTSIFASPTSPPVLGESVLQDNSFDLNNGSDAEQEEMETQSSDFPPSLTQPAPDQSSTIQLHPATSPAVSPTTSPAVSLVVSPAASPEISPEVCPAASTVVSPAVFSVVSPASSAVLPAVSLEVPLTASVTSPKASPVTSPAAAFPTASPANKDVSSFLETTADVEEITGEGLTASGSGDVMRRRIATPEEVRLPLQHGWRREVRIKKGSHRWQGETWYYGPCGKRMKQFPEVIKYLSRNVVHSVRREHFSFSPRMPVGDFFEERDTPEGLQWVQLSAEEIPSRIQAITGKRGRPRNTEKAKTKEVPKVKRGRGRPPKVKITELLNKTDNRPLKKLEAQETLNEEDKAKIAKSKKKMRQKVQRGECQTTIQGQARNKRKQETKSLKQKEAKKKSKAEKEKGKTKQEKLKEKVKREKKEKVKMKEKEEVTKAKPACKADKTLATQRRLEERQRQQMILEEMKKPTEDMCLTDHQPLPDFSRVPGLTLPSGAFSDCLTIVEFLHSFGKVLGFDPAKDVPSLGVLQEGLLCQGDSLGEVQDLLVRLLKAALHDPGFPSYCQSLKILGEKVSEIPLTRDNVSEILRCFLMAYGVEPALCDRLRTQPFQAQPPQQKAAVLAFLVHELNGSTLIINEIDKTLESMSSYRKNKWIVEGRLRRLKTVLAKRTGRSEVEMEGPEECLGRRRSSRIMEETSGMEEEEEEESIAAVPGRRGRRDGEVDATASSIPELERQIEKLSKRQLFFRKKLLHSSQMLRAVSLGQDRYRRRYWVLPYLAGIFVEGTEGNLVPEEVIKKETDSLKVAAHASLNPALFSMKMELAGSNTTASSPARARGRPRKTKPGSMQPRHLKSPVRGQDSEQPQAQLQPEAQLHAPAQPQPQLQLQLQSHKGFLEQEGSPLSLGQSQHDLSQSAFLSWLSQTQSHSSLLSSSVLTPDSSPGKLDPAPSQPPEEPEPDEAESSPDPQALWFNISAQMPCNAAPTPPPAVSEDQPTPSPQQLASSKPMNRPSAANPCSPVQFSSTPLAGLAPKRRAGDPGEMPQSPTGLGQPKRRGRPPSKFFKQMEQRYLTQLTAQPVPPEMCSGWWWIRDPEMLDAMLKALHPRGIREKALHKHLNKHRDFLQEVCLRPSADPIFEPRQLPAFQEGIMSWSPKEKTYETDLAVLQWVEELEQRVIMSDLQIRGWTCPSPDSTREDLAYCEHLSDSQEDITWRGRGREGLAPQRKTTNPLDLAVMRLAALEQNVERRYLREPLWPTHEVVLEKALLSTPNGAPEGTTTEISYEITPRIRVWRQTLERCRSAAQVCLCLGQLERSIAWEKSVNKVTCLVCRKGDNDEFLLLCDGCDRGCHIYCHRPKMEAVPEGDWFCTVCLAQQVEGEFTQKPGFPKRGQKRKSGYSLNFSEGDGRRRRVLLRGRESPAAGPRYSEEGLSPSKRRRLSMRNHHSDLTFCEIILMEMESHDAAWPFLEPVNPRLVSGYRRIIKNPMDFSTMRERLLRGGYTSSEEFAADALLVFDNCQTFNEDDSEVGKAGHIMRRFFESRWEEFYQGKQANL
# UniProt Q5H9F3: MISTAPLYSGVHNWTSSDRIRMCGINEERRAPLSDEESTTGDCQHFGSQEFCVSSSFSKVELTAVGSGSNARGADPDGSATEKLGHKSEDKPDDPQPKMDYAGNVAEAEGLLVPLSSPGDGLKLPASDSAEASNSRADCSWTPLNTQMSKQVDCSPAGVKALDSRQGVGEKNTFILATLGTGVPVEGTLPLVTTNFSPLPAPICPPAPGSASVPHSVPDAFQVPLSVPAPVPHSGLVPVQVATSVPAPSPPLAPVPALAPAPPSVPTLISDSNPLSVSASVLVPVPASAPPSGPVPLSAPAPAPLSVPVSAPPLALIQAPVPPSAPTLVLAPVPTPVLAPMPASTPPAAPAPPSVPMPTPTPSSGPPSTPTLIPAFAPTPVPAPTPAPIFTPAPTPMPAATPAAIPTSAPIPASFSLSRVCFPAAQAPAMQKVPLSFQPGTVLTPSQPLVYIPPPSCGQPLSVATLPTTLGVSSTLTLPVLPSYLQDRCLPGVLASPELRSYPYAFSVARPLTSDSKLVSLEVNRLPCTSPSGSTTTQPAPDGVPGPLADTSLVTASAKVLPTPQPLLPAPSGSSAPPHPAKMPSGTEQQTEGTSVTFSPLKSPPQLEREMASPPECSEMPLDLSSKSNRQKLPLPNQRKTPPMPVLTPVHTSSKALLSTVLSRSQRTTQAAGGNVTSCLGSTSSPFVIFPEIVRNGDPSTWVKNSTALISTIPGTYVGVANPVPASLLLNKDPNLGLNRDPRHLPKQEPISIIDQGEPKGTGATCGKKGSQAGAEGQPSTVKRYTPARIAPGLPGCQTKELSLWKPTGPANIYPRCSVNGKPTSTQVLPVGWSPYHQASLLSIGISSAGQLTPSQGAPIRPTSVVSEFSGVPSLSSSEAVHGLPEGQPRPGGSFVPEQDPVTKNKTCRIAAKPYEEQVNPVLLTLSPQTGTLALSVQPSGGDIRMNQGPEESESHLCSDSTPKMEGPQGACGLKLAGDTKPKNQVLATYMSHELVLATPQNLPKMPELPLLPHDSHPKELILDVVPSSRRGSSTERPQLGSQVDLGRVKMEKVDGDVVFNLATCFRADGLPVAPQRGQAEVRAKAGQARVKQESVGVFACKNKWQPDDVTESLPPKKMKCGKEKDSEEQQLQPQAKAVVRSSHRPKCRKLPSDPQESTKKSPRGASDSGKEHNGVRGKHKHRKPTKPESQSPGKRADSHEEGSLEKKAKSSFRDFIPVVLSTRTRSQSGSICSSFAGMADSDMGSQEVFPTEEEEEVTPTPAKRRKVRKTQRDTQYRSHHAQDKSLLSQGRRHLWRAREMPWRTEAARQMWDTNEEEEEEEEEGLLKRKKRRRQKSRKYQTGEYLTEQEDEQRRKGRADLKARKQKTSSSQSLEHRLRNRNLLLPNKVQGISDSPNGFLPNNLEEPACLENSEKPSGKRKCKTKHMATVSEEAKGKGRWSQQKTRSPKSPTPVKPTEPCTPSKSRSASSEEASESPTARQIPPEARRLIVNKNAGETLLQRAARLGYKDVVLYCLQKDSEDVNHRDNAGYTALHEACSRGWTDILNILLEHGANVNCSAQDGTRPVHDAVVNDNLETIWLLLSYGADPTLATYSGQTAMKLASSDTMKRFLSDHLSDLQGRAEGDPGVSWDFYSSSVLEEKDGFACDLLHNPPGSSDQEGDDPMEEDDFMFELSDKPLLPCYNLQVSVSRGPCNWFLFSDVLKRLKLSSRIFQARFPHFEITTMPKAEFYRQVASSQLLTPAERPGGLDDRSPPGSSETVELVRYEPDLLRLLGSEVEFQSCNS
# UniProt Q96B45: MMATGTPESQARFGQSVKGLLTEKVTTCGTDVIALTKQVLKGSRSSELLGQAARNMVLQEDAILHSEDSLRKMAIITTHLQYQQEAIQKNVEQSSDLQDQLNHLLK
# UniProt Q8IWZ6: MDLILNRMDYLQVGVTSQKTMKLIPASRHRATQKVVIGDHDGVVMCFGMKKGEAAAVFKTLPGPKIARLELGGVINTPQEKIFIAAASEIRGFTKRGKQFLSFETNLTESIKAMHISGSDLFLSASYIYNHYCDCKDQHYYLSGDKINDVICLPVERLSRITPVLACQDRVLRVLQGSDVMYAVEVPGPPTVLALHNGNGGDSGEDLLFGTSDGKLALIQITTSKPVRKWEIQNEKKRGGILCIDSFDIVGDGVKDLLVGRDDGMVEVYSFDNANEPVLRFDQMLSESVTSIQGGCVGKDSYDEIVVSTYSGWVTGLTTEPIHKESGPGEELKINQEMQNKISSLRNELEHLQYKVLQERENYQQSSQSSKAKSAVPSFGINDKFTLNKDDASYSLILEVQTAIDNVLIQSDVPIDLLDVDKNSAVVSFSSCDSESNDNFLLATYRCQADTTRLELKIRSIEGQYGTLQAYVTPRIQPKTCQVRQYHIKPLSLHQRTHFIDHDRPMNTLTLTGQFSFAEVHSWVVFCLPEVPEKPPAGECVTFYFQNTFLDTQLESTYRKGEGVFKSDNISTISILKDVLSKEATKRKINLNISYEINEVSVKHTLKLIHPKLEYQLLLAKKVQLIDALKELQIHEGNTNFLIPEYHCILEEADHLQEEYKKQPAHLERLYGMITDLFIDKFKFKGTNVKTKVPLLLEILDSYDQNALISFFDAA
# UniProt Q9BUT1: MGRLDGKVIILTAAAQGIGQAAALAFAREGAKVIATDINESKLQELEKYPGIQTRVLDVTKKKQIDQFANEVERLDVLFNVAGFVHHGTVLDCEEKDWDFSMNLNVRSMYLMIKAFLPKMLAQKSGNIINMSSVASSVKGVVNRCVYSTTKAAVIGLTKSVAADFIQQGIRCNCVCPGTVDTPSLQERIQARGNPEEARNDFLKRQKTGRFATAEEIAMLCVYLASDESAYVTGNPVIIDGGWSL
# UniProt Q9H8M2, whole entry, looked up: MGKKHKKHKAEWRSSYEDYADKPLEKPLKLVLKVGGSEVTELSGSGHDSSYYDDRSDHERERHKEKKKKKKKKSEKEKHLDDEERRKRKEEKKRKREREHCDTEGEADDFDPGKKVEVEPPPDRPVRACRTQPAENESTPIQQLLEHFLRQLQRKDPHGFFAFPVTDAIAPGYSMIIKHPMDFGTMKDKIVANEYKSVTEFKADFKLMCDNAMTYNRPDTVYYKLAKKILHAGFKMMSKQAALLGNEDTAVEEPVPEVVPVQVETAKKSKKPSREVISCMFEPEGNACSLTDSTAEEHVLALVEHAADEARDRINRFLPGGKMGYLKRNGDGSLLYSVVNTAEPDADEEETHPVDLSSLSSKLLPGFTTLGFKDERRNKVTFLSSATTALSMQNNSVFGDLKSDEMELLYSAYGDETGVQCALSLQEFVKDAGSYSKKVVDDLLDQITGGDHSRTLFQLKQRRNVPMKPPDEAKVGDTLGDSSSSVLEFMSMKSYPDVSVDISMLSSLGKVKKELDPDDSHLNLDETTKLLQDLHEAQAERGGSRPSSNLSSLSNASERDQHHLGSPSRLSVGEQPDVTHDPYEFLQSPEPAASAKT
# UniProt Q8IXM2, whole entry, looked up: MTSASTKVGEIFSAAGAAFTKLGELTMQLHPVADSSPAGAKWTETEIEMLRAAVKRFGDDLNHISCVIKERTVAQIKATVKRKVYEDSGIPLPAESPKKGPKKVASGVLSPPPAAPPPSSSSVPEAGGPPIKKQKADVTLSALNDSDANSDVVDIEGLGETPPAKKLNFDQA
# UniProt Q9NPI1: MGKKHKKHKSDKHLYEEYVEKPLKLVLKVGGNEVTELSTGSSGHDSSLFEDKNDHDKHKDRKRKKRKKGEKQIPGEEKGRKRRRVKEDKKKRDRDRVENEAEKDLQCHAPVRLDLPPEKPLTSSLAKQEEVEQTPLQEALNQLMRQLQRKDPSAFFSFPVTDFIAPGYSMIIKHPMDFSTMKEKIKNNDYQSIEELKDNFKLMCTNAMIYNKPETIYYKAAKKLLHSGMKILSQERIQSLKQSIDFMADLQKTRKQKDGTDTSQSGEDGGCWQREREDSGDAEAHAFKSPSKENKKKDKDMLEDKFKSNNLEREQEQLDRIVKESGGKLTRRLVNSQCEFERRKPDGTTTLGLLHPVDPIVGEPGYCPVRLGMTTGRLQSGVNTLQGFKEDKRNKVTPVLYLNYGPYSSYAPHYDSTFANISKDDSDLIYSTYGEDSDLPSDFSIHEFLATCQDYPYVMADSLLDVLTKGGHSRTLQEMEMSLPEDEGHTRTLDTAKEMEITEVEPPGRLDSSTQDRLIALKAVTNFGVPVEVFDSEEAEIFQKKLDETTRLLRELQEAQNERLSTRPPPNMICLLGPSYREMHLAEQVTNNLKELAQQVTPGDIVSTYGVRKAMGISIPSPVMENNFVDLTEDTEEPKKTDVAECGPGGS
# The list shows a part of the results.
# Assays:
# Test in all cases: log2 fold change, soluble protein after heating vs DMSO (PISA); higher = thermal stabilisation; K562 lysate, 10 uM; active = over 0.2 and 3.5 SD of the protein, either way, in both replicates (recomputed)
# [1] = compound: C#Cc1cccc(Nc2ncnc3cc(OCCOC)c(OCCOC)cc23)c1 [erlotinib]
# Procedure, shortened: (§1)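 K562 pellets were dounce-homogenised in PBS pH 7.4 with 1 mM MgCl2, and the crude extract at 1 mg/mL protein was treated with 10 μM compound for 30 min. Aliquots were heated for 3 min across 48°C-58°C, pooled, and brought to 0.5% NP-40 at 4°C; soluble protein was the supernatant after 21,000xg for 90 min. Soluble protein was quantified by TMTpro 16plex LC-MS/MS with channel sums equalised, and reported as log2 fold change in thermal stability against DMSO controls, with values from duplicates.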
# [2] = compound: C1=CC(=CC=C1C2=NC3=C(N2)C=C(C=C3)C(=O)N)OC4=CC=C(C=C4)Cl
# Procedure, shortened: as §1
# [3] = compound: C1=CC=C(C=C1)C2=NC(=C(N2)C3=CC=NC=C3)C4=CC(=C(C=C4)Cl)O
# Procedure, shortened: as §1
# [4] = compound: C1CCN(C1)C(=O)NC2=CC=CC(=C2)NC3=NC=C(C(=N3)NCCC4=CN=CN4)Br
# Procedure, shortened: as §1
# [5] = compound: C1CN(CCC1(CC2=CC=C(C=C2)Cl)N)C3=NC=NC4=C3C=CN4
# Procedure, shortened: as §1
# [6] = compound: C1COCCN1CCN2C3=CC=CC=C3N=C2NC(=O)C4=CC(=CC=C4)[N+](=O)[O-] [IRAK-1-4 Inhibitor I]
# Procedure, shortened: as §1
# [7] = compound: CC(=O)c1cnc2ccc(-c3cc(Cl)c(O)c(Cl)c3)nc2c1N[C@H]1CC[C@H](CN(C)C)CC1
# Procedure, shortened: as §1
# [8] = compound: CC(C)(C)Cn1c(N)nc2ccc(-c3[nH]c(C(C)(C)C)nc3-c3ccc(F)cc3)nc21 [ralimetinib]
# Procedure, shortened: as §1
# [9] = compound: CC(C)(O)CC(=O)NCCn1ccc2ncnc(Nc3ccc(Oc4cccc(C(F)(F)F)c4)c(Cl)c3)c21
# Procedure, shortened: as §1
# [10] = compound: CC(C)C1=C2N=C(C=C(N2N=C1)NCC3=CC=CC=C3)NCCCCCCN
# Procedure, shortened: as §1
# [11] = compound: CC1=C(C(CC(=O)N1)C2=CC=C(C=C2)C(F)(F)F)C(=O)NC3=C(C=C4C(=C3)C=NN4)F
# Procedure, shortened: as §1
# [12] = compound: CC1=C(C=C(C=C1)NC(=O)C2=CC(=CC=C2)C(C)(C)C#N)NC3=CC4=C(C=C3)N=CN(C4=O)C
# Procedure, shortened: as §1
# [13] = compound: CC1=C(C=C(C=C1)NC(=O)C2=CC(=CC=C2)N(C)C)NC(=O)C3=CC=C(C=C3)O
# Procedure, shortened: as §1
# [14] = compound: CC1=CC=C(C=C1)SC2=C3C=C(SC3=CN=C2)C(=O)N
# Procedure, shortened: as §1
# [15] = compound: C/C(=N\NC(=O)C1=CC(=CC=C1)S(=O)(=O)N2CCOCC2)/C3=C(C=CC(=C3)Cl)O
# Procedure, shortened: as §1
# [16] = compound: C1=CC2=C(C=CC(=C2)/C=C\3/C(=O)NC(=NCC4=CC=CS4)S3)N=C1
# Procedure, shortened: as §1
# [17] = compound: C1=CC=C2C(=C1)C3=NNC4=CC=CC(=C43)C2=O
# Procedure, shortened: as §1
# [18] = compound: CC1=C(C2=C(C=C1)C(=O)C3=CC=CC=C3N2CCCN)C
# Procedure, shortened: as §1
# [19] = compound: C1=CC2=NC=CN=C2C=C1/C=C/3\C(=O)NC(=O)S3
# Procedure, shortened: as §1
# [20] = compound: C=CC(=O)N1CCC[C@@H](n2nc(-c3ccc(Oc4ccccc4)cc3)c3c(N)ncnc32)C1 [ibrutinib]
# Procedure, shortened: as §1
Target,log2 fold change [1],log2 fold change [2],log2 fold change [3],log2 fold change [4],log2 fold change [5],log2 fold change [6],log2 fold change [7],log2 fold change [8],log2 fold change [9],log2 fold change [10],log2 fold change [11],log2 fold change [12],log2 fold change [13],log2 fold change [14],log2 fold change [15],log2 fold change [16],log2 fold change [17],log2 fold change [18],log2 fold change [19],log2 fold change [20]
BAZ2A (UniProt Q9UIF9),inactive: -0.054,inactive: 0.081,inactive: 0.007,inactive: -0.082,inactive: -0.096,inactive: -0.044,inactive: 0.009,inactive: -0.013,inactive: 0.01,inactive: -0.013,inactive: -0.066,inactive: 0.004,inactive: 0.111,inactive: 0.378,–,–,–,–,–,–
BCORL1 isoform 3 (UniProt Q5H9F3),inactive: 0.002,inactive: 0.15,inactive: 0.004,inactive: -0.114,inactive: -0.005,–,–,inactive: -0.07,inactive: 0.075,inactive: 0.074,–,inactive: -0.321,inactive: -0.01,–,inactive: -0.015,inactive: -0.117,inactive: -0.115,inactive: 0.001,–,–
BIN1 (UniProt O00499),inactive: -0.096,inactive: 0.063,–,inactive: -0.168,inactive: 0.246,–,inactive: -0.005,–,–,inactive: -0.244,inactive: 0.009,–,–,inactive: 0.071,inactive: 0.041,inactive: -0.086,inactive: 0.039,–,–,–
BCL7C (UniProt Q8WUZ0),inactive: 0.073,inactive: 0.006,inactive: -0.155,inactive: 0.048,inactive: -0.046,inactive: 0.061,inactive: 0.051,inactive: 0.239,inactive: -0.018,inactive: -0.094,–,inactive: 0.066,inactive: 0.06,inactive: -0.073,–,–,–,inactive: 0.085,inactive: 0.02,inactive: -0.037
BICRA (UniProt Q9NZM4),inactive: 0.204,inactive: 0.231,inactive: 0.065,–,–,inactive: 0.115,inactive: -0.093,inactive: -0.138,inactive: -0.271,inactive: 0.102,–,inactive: -0.012,inactive: -0.003,inactive: -0.156,–,–,–,inactive: -0.168,inactive: 0.12,inactive: -0.053
B4GALT7 (UniProt Q9UBV7),inactive: 0.16,inactive: 0.108,–,inactive: -0.075,inactive: 0.075,–,–,–,–,inactive: 0.011,–,inactive: 0.015,–,–,inactive: -0.091,inactive: 0.074,inactive: -0.151,–,–,–
BRIP1 (UniProt Q9BX63),inactive: 0.038,inactive: 0.067,inactive: 0.021,inactive: 0.112,inactive: -0.042,inactive: 0.169,inactive: -0.001,inactive: 0.056,inactive: -0.064,inactive: -0.003,inactive: -0.043,inactive: 0.026,inactive: 0.046,inactive: 0.021,inactive: -0.257,inactive: 0.131,inactive: 0.139,inactive: -0.023,–,–
BRAF (UniProt P15056),inactive: -0.05,inactive: -0.04,–,inactive: -0.007,inactive: 0.027,inactive: -0.005,–,inactive: 0.008,–,inactive: 0.032,inactive: 0.004,active: 0.65,–,inactive: -0.021,inactive: -0.101,inactive: 0.013,inactive: 0,inactive: -0.111,inactive: -0.008,inactive: 0.29
BORCS7 (UniProt Q96B45),inactive: 0.045,inactive: -0.021,–,–,–,–,inactive: -0.122,–,–,inactive: -0.168,inactive: 0.046,inactive: 0.082,–,inactive: -0.013,inactive: -0.002,inactive: 0.141,inactive: -0.018,–,inactive: -0.103,inactive: -0.031
BPIFA1 (UniProt Q9NP55),inactive: 0.051,inactive: -0.291,inactive: -0.048,inactive: 0.072,inactive: 0.41,inactive: -0.198,–,inactive: 0.008,inactive: 0.901,inactive: 0.222,inactive: 1.85,–,inactive: -0.062,–,inactive: -0.653,inactive: -0.285,inactive: -0.172,inactive: 0.451,–,–
BCL9L (UniProt Q86UU0),inactive: 0.051,inactive: 0.061,inactive: 0.047,–,–,inactive: 0.026,inactive: -0.034,inactive: -0.057,inactive: -0.076,inactive: -0.008,inactive: -0.059,inactive: -0.062,inactive: -0.049,inactive: -0.059,inactive: 0.137,inactive: -0.081,inactive: -0.167,inactive: -0.009,inactive: -0.016,inactive: 0.048
BBS7 (UniProt Q8IWZ6),inactive: -0.095,inactive: -0.014,inactive: 0.057,inactive: -0.068,inactive: 0.082,inactive: 0.022,–,inactive: 0.047,inactive: 0.015,inactive: -0.021,inactive: 0.077,inactive: 0.181,inactive: -0.013,–,inactive: 0.146,inactive: -0.034,inactive: -0.098,inactive: 0.182,–,–
BAG6 (UniProt F6WML8),inactive: -0.143,inactive: 0.078,inactive: 0.144,inactive: -0.096,inactive: 0.149,inactive: -0.081,–,inactive: 0.042,inactive: -0.109,inactive: 0.084,–,–,inactive: -0.059,–,inactive: -0.082,inactive: -0.056,inactive: -0.09,–,–,–
BDH2 (UniProt Q9BUT1),inactive: -0.094,inactive: 0.102,inactive: -0.074,inactive: 0.028,inactive: -0.25,inactive: 0.003,inactive: 0.058,inactive: 0.056,inactive: 0.031,inactive: 0.067,inactive: -0.039,inactive: 0.043,inactive: -0.096,inactive: 0.055,–,–,–,inactive: -0.008,inactive: -0.068,inactive: -0.001
BRD9 (UniProt Q9H8M2),inactive: 0.035,inactive: -0.13,inactive: -0.099,inactive: -0.103,inactive: 0.141,inactive: 0.054,–,inactive: 0.009,inactive: 0.041,inactive: -0.064,inactive: 0.036,–,inactive: -0.002,–,–,–,–,–,–,–
BRD3 (UniProt Q15059),inactive: -0.005,inactive: -0.065,–,inactive: -0.001,inactive: 0.036,–,inactive: 0.04,–,–,inactive: 0.095,inactive: -0.054,inactive: 0.059,–,inactive: -0.074,inactive: 0.084,inactive: 0.004,inactive: -0.013,inactive: -0.033,inactive: -0.033,inactive: -0.011
BAP18 isoform 3 (UniProt Q8IXM2),inactive: -0.266,inactive: -0.026,–,inactive: -0.019,inactive: 0.132,–,inactive: 0.124,–,–,inactive: 0.305,inactive: 0.081,–,–,inactive: -0.157,inactive: -0.082,inactive: 0.06,inactive: 0.045,–,–,–
BRD7 isoform 2 (UniProt Q9NPI1),inactive: -0.076,inactive: -0.312,inactive: -0.023,–,–,inactive: 0.006,inactive: 0.008,inactive: 0.017,inactive: -0.092,inactive: 0.088,inactive: 0.26,inactive: -0.017,inactive: 0.039,inactive: 0.021,–,–,–,inactive: -0.119,inactive: -0.07,inactive: 0.043

# An excerpt of these results, with tabs:
Target	log2 fold change [1]	log2 fold change [2]	log2 fold change [3]	log2 fold change [4]	log2 fold change [5]	log2 fold change [6]	log2 fold change [7]	log2 fold change [8]	log2 fold change [9]	log2 fold change [10]	log2 fold change [11]	log2 fold change [12]	log2 fold change [13]	log2 fold change [14]	log2 fold change [15]	log2 fold change [16]	log2 fold change [17]	log2 fold change [18]	log2 fold change [19]	log2 fold change [20]
BAZ2A (UniProt Q9UIF9)	inactive: -0.054	inactive: 0.081	inactive: 0.007	inactive: -0.082	inactive: -0.096	inactive: -0.044	inactive: 0.009	inactive: -0.013	inactive: 0.01	inactive: -0.013	inactive: -0.066	inactive: 0.004	inactive: 0.111	inactive: 0.378	–	–	–	–	–	–
BCORL1 isoform 3 (UniProt Q5H9F3)	inactive: 0.002	inactive: 0.15	inactive: 0.004	inactive: -0.114	inactive: -0.005	–	–	inactive: -0.07	inactive: 0.075	inactive: 0.074	–	inactive: -0.321	inactive: -0.01	–	inactive: -0.015	inactive: -0.117	inactive: -0.115	inactive: 0.001	–	–
